Measured values from PMC8877233 (Molecules, 2022).

Assay: general procedure: Fmoc solid-phase peptide synthesis; 2-chlorotrityl resin (2-CT resin); DIPCI/HOBt/DIPEA
Conditions: for cyclisation yield: cyclisation step; for step yield: late stage modification step; for crude mass / crude yield / isolated yield: whole synthesis; for crude yield: from resin loading; for crude yield / isolated yield: scale of the general procedure 81.6 µmol

Substance | cyclisation yield | step yield | crude mass | crude yield | isolated yield (overall from resin loading) | isolated yield | cyclisation yield (on linear precursor)
Cyclo-[(2R,3R)-2,3-Dihydroxy-4-(octylamino)-4-oxobutanoic Acid-Orn-D-Ser-D-Tyr-D-Asn-Gly-Asn-Ser-Asn] | 49% | 16% | 105 mg | 39% | 3% |  | 
Cyclo-[(2R,3R)-2,3-dihydroxy-4-(octylamino)-4-oxobutanoic Acid-(R)-7-D-Ser-D-Tyr-D-Asn-Gly-Asn-Ser-Asn] |  | 33% |  |  | 25% |  | 
Cyclo-[(2R,3R)-2,3-dihydroxy-4-(octylamino)-4-oxobutanoic Acid-(S)-7-D-Ser-D-Tyr-D-Asn-Gly-Asn-Ser-Asn] | 26% | 29% | 185 mg |  | 8% |  | 
Cyclo-[Dodecanoic Acid-D-Ser-(R)-7-D-Ser-D-Tyr-D-Asn-Gly-Asn-Ser-Asn] | 45% | 37% | 160 mg | 96% | 16% |  | 
Cyclo-[Dodecanoic Acid-D-Ser-(S)-7-D-Ser-D-Tyr-D-Asn-Gly-Asn-Ser-Asn] | 27% | 23% | 195 mg |  | 6% |  | 
Cyclo-[Dodecanoic Acid-D-Ser-Orn-D-Ser-D-Tyr-D-Asn-Gly-Asn-Ser-Asn] | 55% | 11% | 144 mg | 86% | 5% |  | 
Cyclo-[Dodecanoic Acid-Ser-(R)-7-D-Ser-D-Tyr-D-Asn-Gly-Asn-Ser-Asn] | 42% | 31% |  |  | 13% |  | 
Cyclo-[Dodecanoic Acid-Ser-(S)-7-D-Ser-D-Tyr-D-Asn-Gly-Asn-Ser-Asn] | 32% | 12% | 195 mg |  | 4% |  | 
Cyclo-[Dodecanoic Acid-Ser-Orn-D-Ser-D-Tyr-D-Asn-Gly-Asn-Ser-Asn] | 33% | 9% | 70.6 mg | 63% | 2% |  | 
Cyclo-[Undecanoic Acid-D-Ser-(R)-7-D-Ser-D-Tyr-D-Asn-Gly-Asn-Ser-Asn] | 25% | 23% |  |  | 6% |  | 
Cyclo-[Undecanoic Acid-D-Ser-(S)-7-D-Ser-D-Tyr-D-Asn-Gly-Asn-Ser-Asn] | 45% | 8% |  |  | 4% |  | 
Cyclo-[Undecanoic Acid-D-Ser-Orn-D-Ser-D-Tyr-D-Asn-Gly-Asn-Ser-Asn] | 77% | 5% |  |  |  | 39% | 
Cyclo-[Undecanoic Acid-Ser-(R)-7-D-Ser-D-Tyr-D-Asn-Gly-Asn-Ser-Asn] | 34% | 29% |  |  | 10% |  | 
Cyclo-[Undecanoic Acid-Ser-(S)-7-D-Ser-D-Tyr-D-Asn-Gly-Asn-Ser-Asn] |  |  |  |  | 3% |  | 43%
Cyclo-[Undecanoic Acid-Ser-Orn-D-Ser-D-Tyr-D-Asn-Gly-Asn-Ser-Asn] | 16% | 20% | 128 mg | 56% | 2% |  | 
Cyclo-[Undecanoic Acid-Thr-(R)-7-D-Ser-D-Tyr-D-Asn-Gly-Asn-Ser-Asn] | 67% | 34% | 181 mg |  | 23% |  | 
Cyclo-[Undecanoic Acid-Thr-(S)-7-D-Ser-D-Tyr-D-Asn-Gly-Asn-Ser-Asn] | 45% | 6% | 123 mg | 74% | 2% |  | 
